Measurements: patent US8481481B2 (Advanced Accelerator Applications S.A., priority 2008, dated 2013)
Where a sequence shows no end group, the ends are not given.

Assay: general procedure: Fmoc solid-phase peptide synthesis
Settings: whole synthesis, RP-HPLC

MLSRAVCGTSRQLAPALGYLGSRQ
final HPLC purity: 99% | final purity (method not given): 99%
